Laboratory results taken from article PMC3524233.
No constants are given. Whether binding was seen depends on the method and setting. For some assays here: Binding seen in cells or lysates may run through a third protein. Some entries that bind do so weakly or less than the wild type. Blank lines part the entries; values can stand above or below the substance they belong to.

Sequences of proteins named here, by UniProt entry; tags and fusion partners are left off. A change or cut given only in a name is not applied to a line headed by its entry. A line that says so, or that is headed by a name, gives the form on record, which may keep a tag or linker. Residues count along the entry.
s10-RAGE(WT)-FLAG (Q15109, residues 23-404): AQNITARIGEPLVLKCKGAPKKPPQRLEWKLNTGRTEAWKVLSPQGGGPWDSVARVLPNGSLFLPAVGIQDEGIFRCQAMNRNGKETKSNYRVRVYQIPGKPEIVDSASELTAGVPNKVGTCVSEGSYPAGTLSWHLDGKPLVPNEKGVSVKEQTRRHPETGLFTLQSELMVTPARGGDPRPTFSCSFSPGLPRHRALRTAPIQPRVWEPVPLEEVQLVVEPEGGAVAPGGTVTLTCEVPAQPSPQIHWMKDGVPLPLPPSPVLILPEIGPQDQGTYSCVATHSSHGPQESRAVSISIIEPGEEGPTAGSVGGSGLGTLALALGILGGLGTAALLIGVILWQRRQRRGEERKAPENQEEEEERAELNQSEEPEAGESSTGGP
RAGE(C301S) (Q15109, form named): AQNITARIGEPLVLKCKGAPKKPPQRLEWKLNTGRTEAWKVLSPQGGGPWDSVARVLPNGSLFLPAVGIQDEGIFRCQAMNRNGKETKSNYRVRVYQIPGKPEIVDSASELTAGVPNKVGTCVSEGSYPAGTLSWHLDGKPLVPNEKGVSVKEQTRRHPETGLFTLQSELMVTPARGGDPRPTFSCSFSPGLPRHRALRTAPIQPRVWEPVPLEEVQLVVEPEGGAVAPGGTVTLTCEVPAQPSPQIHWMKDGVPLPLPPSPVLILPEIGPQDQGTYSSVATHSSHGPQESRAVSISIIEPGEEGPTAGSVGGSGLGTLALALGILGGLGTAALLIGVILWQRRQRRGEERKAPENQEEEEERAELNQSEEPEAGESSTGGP
RAGE(C259S) (Q15109, form named): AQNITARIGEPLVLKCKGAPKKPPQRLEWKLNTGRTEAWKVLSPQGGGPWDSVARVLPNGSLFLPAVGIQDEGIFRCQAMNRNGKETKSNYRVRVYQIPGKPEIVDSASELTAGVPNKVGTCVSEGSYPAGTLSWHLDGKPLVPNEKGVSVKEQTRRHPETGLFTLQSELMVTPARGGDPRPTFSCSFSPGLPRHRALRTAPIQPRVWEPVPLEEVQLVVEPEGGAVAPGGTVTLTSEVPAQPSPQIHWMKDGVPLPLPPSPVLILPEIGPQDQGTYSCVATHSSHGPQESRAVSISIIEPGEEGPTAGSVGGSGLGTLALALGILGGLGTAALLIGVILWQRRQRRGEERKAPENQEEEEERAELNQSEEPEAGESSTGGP
s10-RAGE(C259S/C301S)-FLAG (Q15109, form named): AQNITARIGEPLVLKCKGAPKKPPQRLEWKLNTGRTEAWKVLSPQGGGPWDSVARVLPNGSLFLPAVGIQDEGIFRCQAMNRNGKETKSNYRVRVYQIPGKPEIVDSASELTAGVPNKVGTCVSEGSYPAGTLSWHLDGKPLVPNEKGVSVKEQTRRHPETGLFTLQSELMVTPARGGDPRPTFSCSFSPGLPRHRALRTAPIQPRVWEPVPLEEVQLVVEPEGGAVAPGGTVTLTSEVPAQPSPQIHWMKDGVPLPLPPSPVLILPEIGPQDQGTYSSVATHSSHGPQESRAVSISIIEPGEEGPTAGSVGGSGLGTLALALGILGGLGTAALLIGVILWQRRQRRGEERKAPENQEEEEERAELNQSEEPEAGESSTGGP

Key:
[1] = target: RAGE(C301S) (UniProt Q15109); test: non-reducing SDS-PAGE with immunoblot; membrane extracts of transfected CHO-CD14 cells; DTT omitted from the loading buffer, 2% LDS, 80°C for 10 min, NuPAGE 4-12% Bis-Tris gel
[2] = target: RAGE(C259S) (UniProt Q15109); test: as above
[3] = target: FLAG-tagged RAGE (WT) (UniProt Q15109); test: non-reducing SDS-PAGE with immunoblot; the same study in transfected HeLa cells (Figure S1)
[4] = target: FLAG-tagged RAGE (WT) (UniProt Q15109); test: non-reducing SDS-PAGE with immunoblot; membrane extracts of transfected CHO-CD14 cells; DTT omitted from the loading buffer, 2% LDS, 80°C for 10 min, NuPAGE 4-12% Bis-Tris gel
[5] = target: FLAG-tagged RAGE (WT) (UniProt Q15109); test: co-IP; FLAG-tagged RAGE transfected transiently into CHO-CD14 cells stably transfected with T7-tagged RAGE; unfractionated membrane extracts; IP with anti-FLAG, IB with anti-T7
[6] = target: FLAG-tagged RAGE (WT) (UniProt Q15109); test: cross-linking; membrane fraction of FLAG-RAGE-transfected CHO-CD14 cells (or the cultured cells directly) cross-linked with BS3, PBS pH 8.0, room temperature, 30 min; SDS-PAGE and IB
[7] = target: s10-RAGE(C259S/C301S)-FLAG (UniProt Q15109); test: split reporter; tripartite split GFP complementation in the ER: s10- and s11-tagged proteins co-transfected with signalpep-GFPs1-9 in CHO-CD14 (and HeLa) cells; fluorescence and confocal microscopy, flow cytometry
[8] = target: s10-RAGE(WT)-FLAG (UniProt Q15109); test: as above

Substance: FLAG-tagged RAGE (WT) (from UniProt Q15109 23-404) (receptor)
binding [3]: binds | binding [4]: binds | binding [5]: binds | binding [6]: binds

Substance: s10-RAGE(WT)-FLAG (from UniProt Q15109 23-404) (receptor)
binding [8]: binds

Next, values leading:

binding [1]: binds
Substance: RAGE(C301S) (from UniProt Q15109 23-404) (receptor)

binding [2]: binds
Substance: RAGE(C259S) (from UniProt Q15109 23-404) (receptor)

binding [7]: binds
Substance: s10-RAGE(C259S/C301S)-FLAG (from UniProt Q15109 23-404) (receptor)
